No constants are given. Whether binding was seen depends on the method and setting. Binding seen in cells or lysates may run through a third protein. Some binding calls cover weakened binding; strength is not graded here. Where a sequence is shown, tags or fusion partners need not be part of it.
Tests used:
Assay in all cases: FRET or BRET; BRET in live HEK293 cells transfected with a Renilla luciferase fusion (donor) and a YFP fusion (acceptor); control donor a nuclear-targeted luciferase; mean corrected BRET ratios, n = 3
[1] = biological target: YFP-PIAS1 (wild-type) (human) (UniProt O75925)
YFP-PIAS2 (human) = YFP-PIAS2 (human) (UniProt O75928)
YFP-PIAS4 (human) = biological target: T1, YFP-PIAS4 (human) (UniProt Q8N2W9)
T1 sequence: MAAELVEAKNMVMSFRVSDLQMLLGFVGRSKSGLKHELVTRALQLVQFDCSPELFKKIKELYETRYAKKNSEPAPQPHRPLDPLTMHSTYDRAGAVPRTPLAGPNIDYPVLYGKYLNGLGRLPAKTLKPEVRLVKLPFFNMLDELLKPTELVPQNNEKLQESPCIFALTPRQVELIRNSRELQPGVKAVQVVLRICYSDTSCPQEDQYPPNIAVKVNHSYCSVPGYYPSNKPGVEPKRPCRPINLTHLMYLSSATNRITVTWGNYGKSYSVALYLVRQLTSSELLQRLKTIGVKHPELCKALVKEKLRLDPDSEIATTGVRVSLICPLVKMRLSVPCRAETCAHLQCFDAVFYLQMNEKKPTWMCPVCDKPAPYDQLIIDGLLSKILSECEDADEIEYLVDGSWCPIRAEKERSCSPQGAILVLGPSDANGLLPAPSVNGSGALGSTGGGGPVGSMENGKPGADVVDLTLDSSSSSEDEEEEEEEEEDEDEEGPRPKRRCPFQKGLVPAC

By UniProt entry, the sequences of proteins in these tests, tags left out. Residues count along the entry.
UniProt O75925: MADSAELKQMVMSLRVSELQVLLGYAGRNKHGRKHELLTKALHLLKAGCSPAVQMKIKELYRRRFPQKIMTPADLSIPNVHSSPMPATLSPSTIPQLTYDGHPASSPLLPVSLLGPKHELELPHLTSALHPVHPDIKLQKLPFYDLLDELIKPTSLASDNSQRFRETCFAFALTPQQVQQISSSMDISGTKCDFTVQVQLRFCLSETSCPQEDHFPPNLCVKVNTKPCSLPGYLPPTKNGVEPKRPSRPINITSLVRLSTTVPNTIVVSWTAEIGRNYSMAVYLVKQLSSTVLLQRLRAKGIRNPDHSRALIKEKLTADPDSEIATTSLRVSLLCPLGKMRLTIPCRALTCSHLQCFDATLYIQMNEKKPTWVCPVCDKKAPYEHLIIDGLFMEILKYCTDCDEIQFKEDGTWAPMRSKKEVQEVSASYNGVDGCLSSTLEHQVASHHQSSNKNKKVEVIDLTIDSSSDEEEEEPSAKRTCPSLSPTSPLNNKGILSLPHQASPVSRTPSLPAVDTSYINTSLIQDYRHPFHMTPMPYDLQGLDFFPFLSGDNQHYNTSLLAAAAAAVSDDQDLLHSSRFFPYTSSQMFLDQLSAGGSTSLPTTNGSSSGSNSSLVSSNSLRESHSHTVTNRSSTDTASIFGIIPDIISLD
UniProt O75928: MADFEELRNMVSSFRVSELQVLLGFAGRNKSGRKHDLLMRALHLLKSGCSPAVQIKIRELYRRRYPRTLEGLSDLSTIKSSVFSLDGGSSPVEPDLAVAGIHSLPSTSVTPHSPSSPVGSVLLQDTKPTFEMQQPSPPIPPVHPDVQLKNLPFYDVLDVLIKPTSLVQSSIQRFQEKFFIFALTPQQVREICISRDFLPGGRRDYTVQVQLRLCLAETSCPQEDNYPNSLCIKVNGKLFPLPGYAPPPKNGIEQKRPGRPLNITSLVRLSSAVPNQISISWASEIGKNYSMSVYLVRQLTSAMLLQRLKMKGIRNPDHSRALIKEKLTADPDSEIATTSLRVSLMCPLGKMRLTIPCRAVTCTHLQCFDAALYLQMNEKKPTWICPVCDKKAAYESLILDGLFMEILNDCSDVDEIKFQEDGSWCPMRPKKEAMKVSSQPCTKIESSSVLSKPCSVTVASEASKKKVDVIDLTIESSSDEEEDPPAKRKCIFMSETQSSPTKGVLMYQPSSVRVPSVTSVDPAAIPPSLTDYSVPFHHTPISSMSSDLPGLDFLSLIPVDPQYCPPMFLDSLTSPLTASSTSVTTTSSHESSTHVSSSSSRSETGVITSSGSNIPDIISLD
UniProt P63165, residues 1-97: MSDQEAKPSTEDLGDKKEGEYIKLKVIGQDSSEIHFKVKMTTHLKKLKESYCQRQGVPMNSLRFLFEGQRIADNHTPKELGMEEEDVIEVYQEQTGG
UniProt P61956: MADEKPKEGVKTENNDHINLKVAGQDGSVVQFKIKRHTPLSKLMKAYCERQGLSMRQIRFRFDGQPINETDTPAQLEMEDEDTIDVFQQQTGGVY

[2] = biological target: YFP-SUMO1 (wild-type, GG) (human) (UniProt P63165)
[3] = biological target: YFP-SUMO2 (wild-type, GG) (human) (UniProt P61956)

Measured: binding

B1: luciferase-FOXP1 (protein, UniProt Q9H334 1-677)
chain: MMQESGTETKSNGSAIQNGSGGSNHLLECGGLREGRSNGETPAVDIGAADLAHAQQQQQQALQVARQLLLQQQQQQQVSGLKSPKRNDKQPALQVPVSVAMMTPQVITPQQMQQILQQQVLSPQQLQVLLQQQQALMLQQQQLQEFYKKQQEQLQLQLLQQQHAGKQPKEQQQVATQQLAFQQQLLQMQQLQQQHLLSLQRQGLLTIQPGQPALPLQPLAQGMIPTELQQLWKEVTSAHTAEETTGNNHSSLDLTTTCVSSSAPSKTSLIMNPHASTNGQLSVHTPKRESLSHEEHPHSHPLYGHGVCKWPGCEAVCEDFQSFLKHLNSEHALDDRSTAQCRVQMQVVQQLELQLAKDKERLQAMMTHLHVKSTEPKAAPQPLNLVSSVTLSKSASEASPQSLPHTPTTPTAPLTPVTQGPSVITTTSMHTVGPIRRRYSDKYNVPISSADIAQNQEFYKNAEVRPPFTYASLIRQAILESPEKQLTLNEIYNWFTRMFAYFRRNAATWKNAVRHNLSLHKCFVRVENVKGAVWTVDEVEFQKRRPQKISGNPSLIKNMQSSHAYCTPLNAALQASMAENSIPLYTTASMGNPTLGNLASAIREELNGAMEHTNSNESDSSPGRSPMQAVHPVHVKEEPLDPEEAEGPLSLVTTANHSPDFDHDRDYEDEPVNEDME
binds: [1] | YFP-PIAS2 (human) | YFP-PIAS4 (human) | [2] | [3]

From publication PMC4751435
